Read-outs that look alike come from different tables or passages of the source. Results are given in words; binding and its absence hold for the method and conditions named. In cells and extracts the contact can be indirect. Some entries that bind do so weakly or less than the wild type. Tags and fused reporters may be left off the sequences shown.

The chains behind the UniProt entries cited, without tags or fusion partners. Residues count along the entry.
UniProt P01132, residues 29-1217: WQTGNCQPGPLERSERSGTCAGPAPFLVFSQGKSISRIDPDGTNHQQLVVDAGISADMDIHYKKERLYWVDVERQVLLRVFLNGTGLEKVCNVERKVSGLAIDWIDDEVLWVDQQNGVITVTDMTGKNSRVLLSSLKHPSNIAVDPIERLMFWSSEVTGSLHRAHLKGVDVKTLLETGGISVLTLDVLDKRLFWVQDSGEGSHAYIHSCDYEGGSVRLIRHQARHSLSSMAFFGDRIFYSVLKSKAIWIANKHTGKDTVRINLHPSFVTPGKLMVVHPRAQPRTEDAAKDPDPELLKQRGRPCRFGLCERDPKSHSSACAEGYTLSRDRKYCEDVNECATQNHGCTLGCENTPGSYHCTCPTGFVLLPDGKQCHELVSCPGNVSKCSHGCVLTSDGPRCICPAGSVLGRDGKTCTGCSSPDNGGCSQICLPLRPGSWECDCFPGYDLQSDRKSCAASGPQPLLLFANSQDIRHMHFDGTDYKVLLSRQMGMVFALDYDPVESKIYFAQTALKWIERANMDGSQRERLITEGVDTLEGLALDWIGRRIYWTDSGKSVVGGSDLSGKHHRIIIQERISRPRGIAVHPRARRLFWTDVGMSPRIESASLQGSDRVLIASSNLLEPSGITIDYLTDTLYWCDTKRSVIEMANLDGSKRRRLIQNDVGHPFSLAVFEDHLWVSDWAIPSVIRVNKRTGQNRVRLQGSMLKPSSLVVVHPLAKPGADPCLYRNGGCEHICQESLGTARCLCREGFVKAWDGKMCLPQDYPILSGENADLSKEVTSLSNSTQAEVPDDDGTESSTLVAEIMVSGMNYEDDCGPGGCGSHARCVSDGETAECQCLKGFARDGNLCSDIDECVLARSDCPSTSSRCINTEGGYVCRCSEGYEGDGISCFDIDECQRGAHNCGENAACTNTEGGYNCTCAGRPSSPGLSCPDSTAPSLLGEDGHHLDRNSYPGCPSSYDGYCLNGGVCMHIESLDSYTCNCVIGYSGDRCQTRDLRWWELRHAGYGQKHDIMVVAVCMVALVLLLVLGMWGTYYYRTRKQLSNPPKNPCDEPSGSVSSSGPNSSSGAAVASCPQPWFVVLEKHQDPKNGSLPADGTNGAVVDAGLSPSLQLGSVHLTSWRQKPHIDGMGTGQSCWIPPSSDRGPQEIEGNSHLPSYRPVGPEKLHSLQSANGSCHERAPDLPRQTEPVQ

Experiment in all cases: co-IP; HA-tagged iRhoms and FLAG-tagged proteins coexpressed in HEK293 ET cells; lysis in 1% Triton X-100, 150 mM NaCl, 50 mM Tris-HCl pH 7.4; iRhoms immunoprecipitated with anti-HA affinity gel, 1 h at 4°C; washes with 300 mM NaCl; FLAG-tagged co-precipitated proteins detected by Western blot
In general terms: In western blotting, separated proteins are transferred to a membrane and probed.

The target of experiment [1] is T1, mouse iRhom2 (Rhbdf2), C-terminal triple HA tag (mouse) (UniProt Q80WQ6).
T1 sequence: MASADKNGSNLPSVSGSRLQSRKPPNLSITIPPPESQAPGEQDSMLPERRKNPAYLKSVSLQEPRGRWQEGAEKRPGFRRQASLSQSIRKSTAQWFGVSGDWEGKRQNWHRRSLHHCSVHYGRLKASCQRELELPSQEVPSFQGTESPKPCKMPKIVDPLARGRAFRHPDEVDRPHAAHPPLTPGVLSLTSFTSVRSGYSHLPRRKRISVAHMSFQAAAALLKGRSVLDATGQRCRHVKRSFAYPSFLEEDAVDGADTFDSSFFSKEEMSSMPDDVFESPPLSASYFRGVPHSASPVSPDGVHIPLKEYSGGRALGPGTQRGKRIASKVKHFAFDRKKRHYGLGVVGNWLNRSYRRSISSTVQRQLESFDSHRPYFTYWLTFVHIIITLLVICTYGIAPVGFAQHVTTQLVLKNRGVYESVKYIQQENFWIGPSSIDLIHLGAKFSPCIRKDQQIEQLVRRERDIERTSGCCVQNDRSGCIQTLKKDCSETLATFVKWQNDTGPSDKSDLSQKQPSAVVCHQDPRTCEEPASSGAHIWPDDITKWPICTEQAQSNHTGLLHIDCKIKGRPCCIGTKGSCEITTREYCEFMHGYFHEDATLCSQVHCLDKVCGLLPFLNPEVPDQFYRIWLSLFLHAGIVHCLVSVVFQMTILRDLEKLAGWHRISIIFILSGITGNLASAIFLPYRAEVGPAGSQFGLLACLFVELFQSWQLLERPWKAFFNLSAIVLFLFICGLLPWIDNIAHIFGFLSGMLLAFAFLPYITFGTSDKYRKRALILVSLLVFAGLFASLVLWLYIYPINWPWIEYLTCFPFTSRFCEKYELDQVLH

Experiment [2] has as its target T2, human iRhom1 (Rhbdf1), C-terminal triple HA tag (human) (UniProt Q96CC6).
T2 sequence: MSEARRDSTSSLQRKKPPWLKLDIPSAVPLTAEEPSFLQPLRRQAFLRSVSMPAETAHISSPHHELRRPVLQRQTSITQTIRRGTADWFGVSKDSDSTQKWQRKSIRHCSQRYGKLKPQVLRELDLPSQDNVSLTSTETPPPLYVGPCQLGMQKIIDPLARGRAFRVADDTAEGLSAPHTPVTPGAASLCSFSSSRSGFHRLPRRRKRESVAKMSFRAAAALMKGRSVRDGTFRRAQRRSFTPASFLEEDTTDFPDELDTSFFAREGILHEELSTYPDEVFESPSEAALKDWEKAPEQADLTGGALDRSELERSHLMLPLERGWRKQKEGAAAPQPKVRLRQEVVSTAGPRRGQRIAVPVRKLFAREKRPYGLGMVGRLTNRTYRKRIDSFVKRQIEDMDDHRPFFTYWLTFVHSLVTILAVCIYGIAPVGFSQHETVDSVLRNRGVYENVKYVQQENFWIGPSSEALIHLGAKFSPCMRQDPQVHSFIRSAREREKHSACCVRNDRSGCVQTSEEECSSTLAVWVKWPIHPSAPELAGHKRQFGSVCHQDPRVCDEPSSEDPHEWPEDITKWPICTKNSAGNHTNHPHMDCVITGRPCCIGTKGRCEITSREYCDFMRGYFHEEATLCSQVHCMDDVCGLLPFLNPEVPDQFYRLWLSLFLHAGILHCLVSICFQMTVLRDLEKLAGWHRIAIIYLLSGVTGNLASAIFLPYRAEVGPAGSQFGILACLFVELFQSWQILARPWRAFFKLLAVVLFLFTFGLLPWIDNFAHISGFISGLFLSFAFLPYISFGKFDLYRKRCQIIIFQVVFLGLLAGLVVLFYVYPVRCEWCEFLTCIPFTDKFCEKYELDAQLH

In experiment [3] the target is T1, mouse iRhom2 (Rhbdf2), C-terminal triple HA tag (mouse). This is another data set of the same source.
The target of experiment [4] is T2, human iRhom1 (Rhbdf1), C-terminal triple HA tag (human). This is another data set of the same source.

On to “Flag-tagged mouse EGF (from UniProt P01132 29-1217)”, for which the binding entry in experiment [1] and in experiment [2] was “binds” in each case.

B1: Flag-tagged human prolactin (protein, UniProt P01236 29-227)
chain: LPICPGGAARCQVTLRDLFDRAVVLSHYIHNLSSEMFSEFDKRYTHGRGFITKAINSCHTSSLATPEDKEQAQQMNQKDFLSLIVSILRSWNEPLYHLVTEVRGMQEAPEAILSKAVEIEEQTKRLLEGMELIVSQVHPETKENEIYPVWSGLPSLQMADEESRLSAYYNLLHCLRRDSHKIDNYLKLLKCRIIHNNNC
As for B1, the binding result in experiment [3] and in experiment [4] was “no binding” throughout.

The values are drawn from article PMC3149277.
